# Source: PubChem BioAssay AID1259265 (Sanger Institute, 2017)
# Assay: 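Validate synthetic lethal siRNA and anchor drug combinations in colorectal cancer cells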 (follow-up of hits)
# Cell system: SW620 human colorectal cancer cells
# Knock-down reagent: single siRNA against human genes
# Treatment: anchor drug given a day after transfection: BYL719 at 1 µM, cetuximab at 5 µg/ml, trametinib at 10 nM; DMSO alone as the comparison arm
# Measurement: 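Viability of each well as a fraction of the non-targeting pool 2 control, mean of replicates; synergy score weighing the combined effect against siRNA and drug alone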
# Direction: synergy score with trametinib: higher = stronger synergy (synthetic lethal) with trametinib; synergy score with BYL719: higher = stronger synergy (synthetic lethal) with BYL719; synergy score with cetuximab: higher = stronger synergy (synthetic lethal) with cetuximab; viability, siRNA alone (DMSO) and viability, siRNA plus trametinib: higher = more surviving cells
# Call rule: 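Active if the synergy score is over 0.10 for any of the three anchor drugs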
# Shown is an unselected part of 160 reagents. Of all reagents, 31 (19%) were called active. 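Calls refer to single siRNAs; agreement across several siRNAs per gene and other cell lines is not shown.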 Entries without a mark were called inactive. Reagents against one gene are numbered here. No viability above 1 is reported: the scale is capped. Not stated in the record: the amount of reagent, the time to read-out.
gene,reagent,synergy score with trametinib,synergy score with BYL719,synergy score with cetuximab,"viability, siRNA alone (DMSO) (fraction of control)","viability, siRNA plus trametinib (fraction of control)"
MAPK4,1,-0.0814,-0.193,-0.177,0.937,0.59
MAPK4,2,0.0111,-0.146,-0.062,0.91,0.483
MAPK4,3,-0.0765,-0.0149,-0.0409,0.953,0.594
MAPK4,4,0.0411,-0.136,-0.114,0.461,0.209
PFKFB3,1,-0.0614,-0.17,0.0595,0.921,0.561
PFKFB3,2,0.186 (active),0.00853,0.021,1,0.357
PFKFB3,3,-0.109,-0.147,0.000234,1,0.651
PFKFB3,4,0.0389,-0.0992,-0.129,0.874,0.436
SYNCRIP,1,0.132 (active),-0.0694,0.0033,0.775,0.289
SYNCRIP,2,-0.0316,-0.201,-0.2,0.879,0.508
SYNCRIP,3,0.0273,-0.161,-0.086,0.664,0.333
SYNCRIP,4,-0.0572,-0.185,-0.0929,0.727,0.452
HUNK,1,0.00773,0.0252,-0.123,0.904,0.483
HUNK,2,0.115 (active),-0.0354,-0.0473,0.635,0.229
HUNK,3,0.0247,0.0364,-0.122,1,0.518
HUNK,4,0.111 (active),0.014,-0.0188,0.763,0.303
SF3B1,1,-0.0951,-0.0556,-0.05,0.179,0.192
SF3B1,2,-0.0829,-0.0334,-0.0178,0.255,0.221
SF3B1,3,-0.0282,0.0929,-0.0381,0.41,0.251
SF3B1,4,-0.0867,-0.0034,0.000897,0.254,0.224
MAP3K8,1,-0.0745,-0.182,-0.122,1,0.617
MAP3K8,2,-0.163,-0.117,-0.144,0.573,0.474
MAP3K8,3,-0.147,-0.0869,-0.0655,1,0.689
MAP3K8,4,0.139 (active),-0.0092,0.0908,1,0.403
NLK,1,-0.0919,-0.253,-0.153,0.86,0.559
NLK,2,0.121 (active),-0.0243,0.0161,0.832,0.33
NLK,3,-0.209,-0.306,-0.0702,1,0.752
NLK,4,-0.057,-0.126,-0.0962,1,0.6
CDK6,1,0.163 (active),-0.152,0.0187,1,0.38
CDK6,2,0.0147,-0.17,-0.0737,0.71,0.37
CDK6,3,0.102 (active),-0.281,-0.122,1,0.44
CDK6,4,0.156 (active),-0.169,-0.0531,0.989,0.381
MAPKAPK2,1,-0.0711,-0.0425,-0.2,0.841,0.528
MAPKAPK2,2,-0.245,-0.169,-0.198,0.874,0.72
MAPKAPK2,3,-0.216,-0.24,-0.15,0.943,0.728
MAPKAPK2,4,-0.186,-0.109,-0.122,1,0.729

A few values from above:
Entry of MAPK4 #3 in “synergy score with cetuximab”: -0.0409
Result for NLK #2 under “synergy score with BYL719”: -0.0243 (active)
For “viability, siRNA plus trametinib (fraction of control)”, SF3B1 #2 shows 0.221
Under “synergy score with trametinib”, MAP3K8 #3 has -0.147
Value for SF3B1 #3 under “synergy score with cetuximab”: -0.0381
NLK #4, viability, siRNA alone (DMSO) (fraction of control) → 1
